Values joined by “and” are separate entries in the source; they are usually repeats but may differ in a detail not shown here. Equal entries are not always repeated. This is one part of the list. Repeats are few or missing, and single values can be far off.
Experiments:
[1] = tested on: MEPP (mouse ovarian epithelium Trp53/Pten KO); test: cell viability relative to untreated (fraction); higher = less growth inhibition; conditions: 5 µM; 3 days
[2] = tested on: PREPP (mouse prostate epithelium Trp53/Pten KO); test: as above; conditions: 5 µM; 3 days

Row | SMILES | cell viability [1] | cell viability [2]
1 | O=C(OCc1ccccc1)c1ccccc1 | 1.02 | 1
2 | O=C(O)/C=C\C(=O)O | 1.08 | 0.936
3 | CC1=C(/C=C/C(C)=C/C=C/C(C)=C/C=C/C=C(C)/C=C/C=C(C)/C=C/C2=C(C)CCCC2(C)C)C(C)(C)CCC1 | 0.991 | 0.888
4 | N=C(N)N | 0.922 | 0.817
5 | Cc1cc(C)nc(NS(=O)(=O)c2ccc(N)cc2)n1 | 1 | 0.907
6 | CC(C)=CCC[C@](C)(O[C@@H]1O[C@H](CO)[C@@H](O)[C@H](O)[C@H]1O)[C@H]1CC[C@]2(C)[C@@H]1[C@H](O)C[C@@H]1[C@@]3(C)CC[C@H](O)C(C)(C)[C@@H]3[C@@H](O[C@@H]3O[C@H](CO)[C@@H](O)[C@H](O)[C@H]3O)C[C@]12C | 1.23 | 1.06
7 | CC(=O)c1c(O)cc(O)cc1O | 0.802 | 0.895
8 | O=c1cc(-c2ccc(O)cc2)oc2c([C@@H]3O[C@H](CO)[C@@H](O)[C@H](O)[C@H]3O)c(O)c([C@@H]3OC[C@H](O)[C@H](O)[C@H]3O)c(O)c12 | 1.01 | 0.901
9 | O=C[C@H](O)[C@@H](O)[C@@H](O)[C@H](O)CO | 0.92 | 1.08
10 | O=c1c(O[C@@H]2O[C@H](CO)[C@@H](O)[C@H](O)[C@H]2O)c(-c2ccc(O)c(O)c2)oc2cc(O)cc(O)c12 | 1.11 | 0.902
11 | CCCCCC/C=C\CCCCCCCC(=O)O | 1.04 | 0.911
12 | C=C(C)[C@@H]1CC[C@]2(C(=O)O)CC[C@]3(C)[C@H](CC[C@@H]4[C@@]5(C)CC[C@H](O)C(C)(C)[C@@H]5CC[C@]43C)[C@@H]12 | 1.07 | 0.862
13 | O=C(O)CCCCCCCC(=O)O | 0.958 | 0.947
14 | CC1(C)C(O[C@@H]2OC[C@@H](O)[C@H](O)[C@H]2O)CC[C@]23CC24CC[C@]2(C)[C@@H]([C@@]5(C)CC[C@@H](C(C)(C)O)O5)[C@H](O)C[C@@]2(C)C4C[C@@H](O[C@@H]2O[C@H](CO)[C@@H](O)[C@H](O)[C@H]2O)C13 (stereo partly drawn) | 0.806 | 1.06
15 | O=c1c(-c2ccc(O[C@@H]3O[C@H](CO)[C@@H](O)[C@H](O)[C@H]3O)cc2)coc2cc(O)cc(O)c12 | 0.959 | 0.946
16 | CCC1=C[C@@H]2CN(C1)Cc1c([nH]c3ccccc13)[C@@](C(=O)OC)(c1cc3c(cc1OC)N(C)[C@H]1[C@@](O)(C(=O)OC)[C@H](OC(C)=O)[C@]4(CC)C=CCN5CC[C@]31[C@@H]54)C2 | 0.449 and 0.602 | 0.756 and 0.589
17 | O=C(O)C1(O)C[C@@H](O)C(O)[C@H](O)C1 (stereo partly drawn) | 1.12 | 0.932
18 | Oc1cc(O)c2c(c1)O[C@H](c1ccc(O)c(O)c1)[C@H](O)C2 | 0.885 | 0.954
19 | CO/N=C(\C(=O)N[C@@H]1C(=O)N2C(C(=O)O)=C(CSC(=O)c3ccco3)CS[C@H]12)c1csc(N)n1 | 1.12 | 0.932
20 | O=C(O)[C@H]1O[C@@H](Oc2cc3oc(-c4ccc(O)cc4)cc(=O)c3c(O)c2O)[C@H](O)[C@@H](O)[C@@H]1O | 0.873 | 0.836

Structural class: the entries above containing sulfur
Row | SMILES | cell viability [1] | cell viability [2]
5 | Cc1cc(C)nc(NS(=O)(=O)c2ccc(N)cc2)n1 | 1 | 0.907
19 | CO/N=C(\C(=O)N[C@@H]1C(=O)N2C(C(=O)O)=C(CSC(=O)c3ccco3)CS[C@H]12)c1csc(N)n1 | 1.12 | 0.932

The list continues:

Row | SMILES | cell viability [1] | cell viability [2]
21 | Oc1cc(O)c2c(c1)OC(c1ccc(O)c(O)c1)C(OC1(c3ccc(O)c(O)c3)Oc3cc(O)cc(O)c3C(O)C1O)C2 (stereo not drawn) | 1.08 | 1.04
22 | NC(=O)N/N=C/c1ccc([N+](=O)[O-])o1 | 1.29 | 0.919
23 | O=C(O)c1ccccn1 | 1.18 | 0.951
24 | O=C([O-])c1ccccc1O.[Na+] | 0.9 | 0.934
25 | Nc1ccc(S(=O)(=O)c2ccc(N)cc2)cc1 | 0.812 | 0.837
26 | O=c1c(O)c(-c2ccccc2)oc2ccccc12 | 0.938 | 0.936
27 | OC1COC(O)CO1 (stereo not drawn) | 0.955 | 0.888
28 | O=C(O)c1ccc[nH]1 | 1.01 | 1.01
29 | CC(C)(CC(=O)O)CC(=O)O | 1.03 | 1.08
30 | CC(C)CC(=O)O | 1.34 | 0.746
31 | C=C(CC(=O)O)C(=O)O | 1.1 | 1.08
32 | CCCNC(C)C(=O)Nc1ccccc1C (stereo not drawn) | 1.11 | 0.88
33 | CC1=C(/C=C/C(C)=C/C=C/C(C)=C/C(=O)O)C(C)(C)CCC1 | 1.02 | 1.12
34 | O=C(OC[C@H]1O[C@@H](OC(=O)c2cc(O)c(O)c(O)c2)[C@H](OC(=O)c2cc(O)c(O)c(O)c2)[C@@H](OC(=O)c2cc(O)c(O)c(O)c2)[C@@H]1OC(=O)c1cc(O)c(O)c(O)c1)c1cc(O)c(O)c(O)c1 | 1.08 | 0.82
35 | CN[C@@H]1[C@@H](O)[C@@H](O[C@@H]2[C@@H](O)[C@H](O[C@H]3O[C@H](CN)[C@@H](O)[C@H](O)[C@H]3O)[C@@H](N)C[C@H]2NC(=O)[C@@H](O)CN)OC[C@]1(C)O | 1.01 | 1.16
36 | C=CCSC | 0.998 | 1
37 | CC(=O)O[C@@H]1CC[C@@]2(C)C(CC[C@]3(C)C2C(=O)C=C2C4[C@@H](C)[C@H](C)CC[C@]4(C)CC[C@]23C)[C@@]1(C)C(=O)O (stereo partly drawn) | 0.816 | 0.872
38 | NC(=O)NC1NC(=O)NC1=O (stereo not drawn) | 0.886 | 1.02
39 | COC(=O)c1ccccc1O | 1.49 | 0.941

— the supplement of paper PMC12873370
